From PMC10798561 come the findings set out here.

By UniProt entry, the sequences of proteins in these tests, tags left out. Where a name states a change or a piece, a line headed by the entry shows the natural chain unless it says otherwise. Chains listed by the source or under a name are the forms on record and can include a tag or linker. Residues count along the entry.
UniProt P04608: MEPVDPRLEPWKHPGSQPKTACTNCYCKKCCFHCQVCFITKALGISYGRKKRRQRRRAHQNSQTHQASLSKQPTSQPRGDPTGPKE
HIV-1 HXB2 Tat residues 1 to 72 fused to GST (HIV-1 (HXB2)): residues 1-72 of P04608
HIV-1 HXB2 Tat residues 1 to 20 fused to GST (HIV-1 (HXB2)): residues 1-20 of P04608

Results are given in words; binding and its absence hold for the method and conditions named. Some binding calls cover weakened binding; strength is not graded here. Tags and fused reporters may be left off the sequences shown.

Assay [1] deals with HIV-1 HXB2 Tat residues 1 to 20 fused to GST (HIV-1 (HXB2)) (UniProt P04608). The assay is described as follows: pull-down; reciprocal in vitro pull-down using MBP-fused TRAF6 as preys and GST-fused Tat truncations (fig. S2B); both purified.
For assay [2], the target named is HIV-1 HXB2 Tat residues 1 to 72 fused to GST (HIV-1 (HXB2)) (UniProt P04608). Described as above.

B1: TRAF6 TRAFC (residues 346 to 504) fused to maltose-binding protein (domain or fragment, UniProt Q9Y4K3 346-504)
chain: AQQCNGIYIWKIGNFGMHLKCQEEEKPVVIHSPGFYTGKPGYKLCMRLHLQLPTAQRCANYISLFVHTMQGEYDSHLPWPFQGTIRLTILDQSEAPVRQNHEEIMDAKPELLAFQRPTIPRNPKGFGYVTFMHLEALRQRTFIKDDTLLVRCEVSTRFD
Take B1: the binding entry in assay [1] was “no binding”; in assay [2], “binds weakly”.
